Measured data: PubChem BioAssay AID1224826 (NIAID, 2016)

Screen: 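Genes that change LPS-induced Tnf promoter activity in mouse macrophages when knocked down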 (primary screen)
Cell system: RAW264.7 G9 macrophages from mouse bearing reporters for p65 (GFP) and the Tnf promoter (mCherry)
Reagents: siRNA pool against mouse genes, 100 nM
Duration: 16 h of LPS stimulation, after 2 days of siRNA transfection
Treatment: bacterial lipopolysaccharide (Salmonella minnesota R595), 10 ng/ml
Detection: 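Imaged Tnf reporter mCherry in nuclei, minus background, normalised per plate to the median and expressed as robust z-scores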
Reading the numbers: Tnf reporter robust z-score: higher = stronger Tnf promoter reporter signal after LPS
Active means: 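a well counts as active at a score of -1.3 or below (Tlr4 knock-down control median) or above 3 (raised signal); controls and wells holding fewer than 50 cells are excluded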
Calls: active = Tnf reporter clearly lowered or raised; inactive = no clear change in Tnf reporter
This is one part, drawn at random, of about 17,000 reagents tested. Over the whole deposit, about 1,110 (6.6%) were called active. 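Active means lowered or raised reporter signal; replicate intensities are raw and not normalised per plate.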 A number with no mark means an inactive call. Reagents against one gene are numbered here. Further read-outs or replicates are left out here.

no.	Target gene	reagent	Tnf reporter robust z-score	fewer than 50 cells in well
1	Atp13a4 (GeneID 224079)	1	-1.39 (active)	enough cells in well
2	Rbx1 (GeneID 56438)	1	-0.29	enough cells in well
3	Ttc4 (GeneID 72354)	1	0.73	enough cells in well
4	Or14c45 (GeneID 258611)	1		fewer than 50 cells per well; well left out of calls
5	Clptm1 (GeneID 56457)	1	1.93	enough cells in well
6	Por (GeneID 18984)	1	-0.81	enough cells in well
7	Cnot9 (GeneID 58184)	1	0.42	enough cells in well
8	Yaf2 (GeneID 67057)	1	-0.35	enough cells in well
9	Ap1g2 (GeneID 11766)	1	-1.69 (active)	enough cells in well
10	Gm5084 (GeneID 100503759)	1	-0.84	enough cells in well
11	Fbxl8 (GeneID 50788)	1	0.77	enough cells in well
12	Sall2 (GeneID 50524)	1	-1.03	enough cells in well
13	Or6z1 (GeneID 258915)	1	0.7	enough cells in well
14	Ubn1 (GeneID 170644)	1	-0.07	enough cells in well
15	Ftmt (GeneID 67634)	1		fewer than 50 cells per well; well left out of calls
16	Or4k42 (GeneID 257662)	1	0.19	enough cells in well
17	Gjd4 (GeneID 225152)	1	0.67	enough cells in well
18	Kcna7 (GeneID 16495)	1	-0.11	enough cells in well
19	Slc39a8 (GeneID 67547)	1		fewer than 50 cells per well; well left out of calls
20	Tssk5 (GeneID 73542)	1		fewer than 50 cells per well; well left out of calls
21	Anapc5 (GeneID 59008)	1	0.26	enough cells in well
22	Faim2 (GeneID 72393)	1	-0.46	enough cells in well
23	Ppp1r15b (GeneID 108954)	1	0.5	enough cells in well
24	Fbxl20 (GeneID 72194)	1		fewer than 50 cells per well; well left out of calls
25	Fbxl20 (GeneID 72194)	2	-0.42	enough cells in well
26	Dpp8 (GeneID 74388)	1	-1.15	enough cells in well
27	Fgf4 (GeneID 14175)	1	-0.53	enough cells in well
28	Abl1 (GeneID 11350)	1		fewer than 50 cells per well; well left out of calls
29	Or4f54 (GeneID 258389)	1	0.6	enough cells in well
30	Etos1 (GeneID 114660)	1	-0.39	enough cells in well
31	Sult5a1 (GeneID 57429)	1		fewer than 50 cells per well; well left out of calls
32	Ifi47 (GeneID 15953)	1	-1.04	enough cells in well
33	Plk2 (GeneID 20620)	1		fewer than 50 cells per well; well left out of calls
34	Mtg2 (GeneID 52856)	1	-1.48 (active)	enough cells in well
35	Or13p3 (GeneID 258852)	1	2.99	enough cells in well
36	Map3k9 (GeneID 338372)	1	0.23	enough cells in well
37	Mageb3 (GeneID 17147)	1	-0.05	enough cells in well
38	Csrp1 (GeneID 13007)	1	0.38	enough cells in well
39	Gdf15 (GeneID 23886)	1	0.44	enough cells in well
40	Ramp2 (GeneID 54409)	1	0.4	enough cells in well
41	Uri1 (GeneID 19777)	1	-0.05	enough cells in well
42	Basp1 (GeneID 70350)	1	0.12	enough cells in well
43	Shroom1 (GeneID 71774)	1	-0.82	enough cells in well
44	Lhx9 (GeneID 16876)	1	1.43	enough cells in well
45	Vmn1r83 (GeneID 171243)	1	0.6	enough cells in well
46	Arhgef2 (GeneID 16800)	1	-0.06	enough cells in well
47	Tas2r125 (GeneID 387352)	1	0.06	enough cells in well
48	Lipk (GeneID 240633)	1	1.44	enough cells in well
49	H3c1 (GeneID 360198)	1	0.37	enough cells in well
50	Cyp3a13 (GeneID 13113)	1	0.49	enough cells in well
51	Ninj1 (GeneID 18081)	1	-0.64	enough cells in well
52	Tinf2 (GeneID 28113)	1	0.23	enough cells in well
53	Sorbs3 (GeneID 20410)	1	-0.18	enough cells in well
54	Pde8b (GeneID 218461)	1	2.15	enough cells in well
55	Fktn (GeneID 246179)	1	0.18	enough cells in well
56	Krcc1 (GeneID 57896)	1	0.17	enough cells in well
57	Slc12a3 (GeneID 20497)	1	0.38	enough cells in well
58	1700018F24Rik (GeneID 69396)	1		fewer than 50 cells per well; well left out of calls
59	Zswim2 (GeneID 71861)	1		fewer than 50 cells per well; well left out of calls
60	Lrrtm3 (GeneID 216028)	1	0.34	enough cells in well
61	Nrp1 (GeneID 18186)	1	0.07	enough cells in well
62	P2ry1 (GeneID 18441)	1	0.47	enough cells in well
63	Mrps21 (GeneID 66292)	1	0.06	enough cells in well
64	Tcp11l2 (GeneID 216198)	1	-1.48 (active)	enough cells in well
65	Prss12 (GeneID 19142)	1	-0.67	enough cells in well
66	Klk8 (GeneID 259277)	1	0.07	enough cells in well
67	Ccdc32 (GeneID 269336)	1	-0.08	enough cells in well
68	Zfp521 (GeneID 225207)	1	1.41	enough cells in well
69	Khdc4 (GeneID 74200)	1	0.33	enough cells in well
70	Dennd5a (GeneID 19347)	1	0.45	enough cells in well
71	Akap8 (GeneID 56399)	1	1.2	enough cells in well
72	Ccl11 (GeneID 20292)	1	1.34	enough cells in well
73	Tnfrsf1a (GeneID 21937)	1	-1.48 (active)	enough cells in well
74	Or13c7 (GeneID 29845)	1	0.12	enough cells in well
75	Tnfrsf8 (GeneID 21941)	1	-0.93	enough cells in well

4 successive entries already listed, for reference:
no.	Target gene	reagent	Tnf reporter robust z-score	fewer than 50 cells in well
12	Sall2 (GeneID 50524)	1	-1.03	enough cells in well
13	Or6z1 (GeneID 258915)	1	0.7	enough cells in well
14	Ubn1 (GeneID 170644)	1	-0.07	enough cells in well
15	Ftmt (GeneID 67634)	1		fewer than 50 cells per well; well left out of calls
